Source: publication PMC4632003
These are yes or no findings as the source states them, for the method shown. Binding seen in cells or lysates may run through a third protein. These calls come from enrichment with a bait or labelling near it, and not all partners need be listed.

Key:
[1] = target: T1, Mitofilin (human (endogenous in HeLa)) (UniProt Q16891); test: affinity purification with mass spectrometry; IP of endogenous Mitofilin or CHCHD6 from HeLa lysate with antibody crosslinked to protein A Sepharose beads, overnight at 4 °C, washed with cold PBS; TCA-precipitated immunoprecipitates analysed by LC-MS/MS
T1 sequence: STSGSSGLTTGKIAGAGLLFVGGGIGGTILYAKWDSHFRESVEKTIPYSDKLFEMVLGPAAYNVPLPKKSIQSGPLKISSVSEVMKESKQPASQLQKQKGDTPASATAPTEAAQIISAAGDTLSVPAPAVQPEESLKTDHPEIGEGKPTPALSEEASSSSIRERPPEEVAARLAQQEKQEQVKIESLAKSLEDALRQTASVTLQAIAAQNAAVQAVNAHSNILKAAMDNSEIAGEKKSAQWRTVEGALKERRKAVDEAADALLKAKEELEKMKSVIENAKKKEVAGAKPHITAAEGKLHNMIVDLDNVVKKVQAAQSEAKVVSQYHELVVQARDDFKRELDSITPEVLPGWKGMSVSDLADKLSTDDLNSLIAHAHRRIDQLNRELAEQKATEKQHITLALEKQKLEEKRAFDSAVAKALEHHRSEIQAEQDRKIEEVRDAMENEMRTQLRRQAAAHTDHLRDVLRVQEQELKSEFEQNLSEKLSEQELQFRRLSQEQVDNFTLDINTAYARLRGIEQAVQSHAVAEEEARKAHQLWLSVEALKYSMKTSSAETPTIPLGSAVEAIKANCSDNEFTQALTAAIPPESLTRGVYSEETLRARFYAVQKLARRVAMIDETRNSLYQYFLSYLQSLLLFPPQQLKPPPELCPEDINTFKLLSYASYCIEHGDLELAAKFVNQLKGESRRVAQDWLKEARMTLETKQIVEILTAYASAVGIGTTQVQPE

[2] = target: T2, CHCHD6 (human (endogenous in HeLa)) (UniProt Q9BRQ6); test: as above
T2 sequence: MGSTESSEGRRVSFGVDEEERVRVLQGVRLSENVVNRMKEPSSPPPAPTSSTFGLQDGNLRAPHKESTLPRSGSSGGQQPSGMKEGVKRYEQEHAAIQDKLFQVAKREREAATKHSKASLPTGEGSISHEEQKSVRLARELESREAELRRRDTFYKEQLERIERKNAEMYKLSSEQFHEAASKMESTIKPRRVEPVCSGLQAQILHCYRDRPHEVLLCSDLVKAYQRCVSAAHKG

B1: Sam50 (protein, UniProt Q9Y512 1-469)
chain: MGTVHARSLEPLPSSGPDFGGLGEEAEFVEVEPEAKQEILENKDVVVQHVHFDGLGRTKDDIIICEIGDVFKAKNLIEVMRKSHEAREKLLRLGIFRQVDVLIDTCQGDDALPNGLDVTFEVTELRRLTGSYNTMVGNNEGSMVLGLKLPNLLGRAEKVTFQFSYGTKETSYGLSFFKPRPGNFERNFSVNLYKVTGQFPWSSLRETDRGMSAEYSFPIWKTSHTVKWEGVWRELGCLSRTASFAVRKESGHSLKSSLSHAMVIDSRNSSILPRRGALLKVNQELAGYTGGDVSFIKEDFELQLNKQLIFDSVFSASFWGGMLVPIGDKPSSIADRFYLGGPTSIRGFSMHSIGPQSEGDYLGGEAYWAGGLHLYTPLPFRPGQGGFGELFRTHFFLNAGNLCNLNYGEGPKAHIRKLAECIRWSYGAGIVLRLGNIARLELNYCVPMGVQTGDRICDGVQFGAGIRFL
With B1 the binding [1] was “binds” and the binding [2] was “binds”.
